In assay [1] the target is T1, plasma ADAMTS13 (human) (UniProt Q76LX8).
T1 sequence: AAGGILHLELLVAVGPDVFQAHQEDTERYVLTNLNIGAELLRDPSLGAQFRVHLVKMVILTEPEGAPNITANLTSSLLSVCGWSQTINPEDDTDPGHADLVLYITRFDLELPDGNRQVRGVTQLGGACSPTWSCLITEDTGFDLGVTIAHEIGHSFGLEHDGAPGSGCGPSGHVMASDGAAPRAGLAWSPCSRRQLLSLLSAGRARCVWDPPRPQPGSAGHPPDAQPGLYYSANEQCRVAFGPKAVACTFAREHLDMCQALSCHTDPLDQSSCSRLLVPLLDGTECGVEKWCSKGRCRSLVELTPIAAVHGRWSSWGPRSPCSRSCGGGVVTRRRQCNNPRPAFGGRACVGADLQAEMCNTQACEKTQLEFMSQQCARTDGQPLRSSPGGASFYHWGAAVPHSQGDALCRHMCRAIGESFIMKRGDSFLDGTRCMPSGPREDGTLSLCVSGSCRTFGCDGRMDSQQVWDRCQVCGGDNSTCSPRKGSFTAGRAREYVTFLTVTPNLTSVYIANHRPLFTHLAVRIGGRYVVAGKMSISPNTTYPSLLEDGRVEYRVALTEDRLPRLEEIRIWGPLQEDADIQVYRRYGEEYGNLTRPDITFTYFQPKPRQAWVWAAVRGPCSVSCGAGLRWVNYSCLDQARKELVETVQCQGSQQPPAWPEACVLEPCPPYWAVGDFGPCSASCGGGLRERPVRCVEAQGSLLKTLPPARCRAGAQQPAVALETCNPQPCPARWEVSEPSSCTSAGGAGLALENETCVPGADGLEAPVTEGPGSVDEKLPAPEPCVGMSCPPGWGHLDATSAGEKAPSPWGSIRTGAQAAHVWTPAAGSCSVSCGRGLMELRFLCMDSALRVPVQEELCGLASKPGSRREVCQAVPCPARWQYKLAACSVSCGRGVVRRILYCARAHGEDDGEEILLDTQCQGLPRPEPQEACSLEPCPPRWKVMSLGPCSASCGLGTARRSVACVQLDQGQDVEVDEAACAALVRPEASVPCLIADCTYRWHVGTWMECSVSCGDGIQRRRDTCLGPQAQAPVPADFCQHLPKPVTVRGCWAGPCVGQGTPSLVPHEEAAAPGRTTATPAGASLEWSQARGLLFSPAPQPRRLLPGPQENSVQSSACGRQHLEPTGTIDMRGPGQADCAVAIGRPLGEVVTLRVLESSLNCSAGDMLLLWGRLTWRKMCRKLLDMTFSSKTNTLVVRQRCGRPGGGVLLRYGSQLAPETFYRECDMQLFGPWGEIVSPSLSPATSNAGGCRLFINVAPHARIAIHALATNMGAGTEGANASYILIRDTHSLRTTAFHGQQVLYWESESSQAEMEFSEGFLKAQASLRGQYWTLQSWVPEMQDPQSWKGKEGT
In words: complex ELISA: anti-ADAMTS13 capture, anti-FXI-HRP detection. In general terms: In an ELISA, binding on a coated surface is turned into a signal by an enzyme label.

The chains behind the UniProt entries cited, without tags or fusion partners. Residues count along the entry.
UniProt P03951, residues 19-625: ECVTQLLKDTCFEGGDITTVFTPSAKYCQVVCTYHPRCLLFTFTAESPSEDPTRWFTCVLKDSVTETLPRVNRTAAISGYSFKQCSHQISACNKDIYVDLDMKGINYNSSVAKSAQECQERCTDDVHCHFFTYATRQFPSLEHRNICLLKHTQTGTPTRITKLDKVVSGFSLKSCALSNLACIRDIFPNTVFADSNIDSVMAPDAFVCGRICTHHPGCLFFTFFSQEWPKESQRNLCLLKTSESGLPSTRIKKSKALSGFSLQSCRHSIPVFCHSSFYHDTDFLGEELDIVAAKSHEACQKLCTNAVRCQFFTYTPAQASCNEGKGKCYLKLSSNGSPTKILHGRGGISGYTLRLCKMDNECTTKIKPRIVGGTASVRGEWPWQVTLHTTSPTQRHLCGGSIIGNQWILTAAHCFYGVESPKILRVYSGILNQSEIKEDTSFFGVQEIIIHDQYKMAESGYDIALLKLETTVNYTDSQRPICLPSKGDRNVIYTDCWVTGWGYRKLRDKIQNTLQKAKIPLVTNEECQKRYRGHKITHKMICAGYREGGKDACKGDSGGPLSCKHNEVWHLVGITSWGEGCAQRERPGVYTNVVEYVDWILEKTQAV

Assay [2] has as its target T1, plasma ADAMTS13 (human). In words: FXI added to FXI-deficient plasma; complex ELISA: anti-ADAMTS13 capture, anti-FXI-HRP detection.

This passage reports binding results from patent US20080138837A1, “Methods and kits for detecting and measuring ADAMTS13/FXI complexes” (priority 2004, published 2008).

No constants are given. Whether binding was seen depends on the method and setting. Some binding calls cover weakened binding; strength is not graded here.

For the substance “Factor XI (from UniProt P03951 19-625) (enzyme)”, the binding entry in assay [1] and in assay [2] was “binds” each time.
